# Experimental data taken from PubChem BioAssay AID540256 (National Center for Advancing Translational Sciences (NCATS), 2011).
# Among all 300,000 compounds or so, about 3,700 (1.2%) were called active. This list was built around the results that the source calls inconclusive (neither active nor inactive); the mix of calls is not that of the screen. The call rests on the fitted dose curve; tested in HEK293 cells. A potency beside an inconclusive call is a rough fit, not a confirmed value.
# Assay: qHTS for Inhibitors of binding or entry into cells for Lassa Virus; further: nearly all actives have a fitted effect of over 50% in size
# Settings: Lassa virus pseudotype entry inhibition, cell reporter; activity change, negative = inhibition: at 37.9 µM (top of the series) unless noted
# On the % scale 0 is the no-effect control and ±100 the full control effect; potency means the concentration at half of the fitted maximal effect.
Structure (SMILES),Potency,"activity change, negative = inhibition"
Cc1ccccc1S(=O)(=O)Cc1ccc(C(=O)N2CCN(c3ccccc3F)CC2)o1,"inconclusive: 10 µM [inhibitor, partial curve, poor fit]",
O=C(NCc1ccc2[nH]c3c(c2c1)CCCC3)c1ccc(S(=O)(=O)N2CCOCC2)cc1,"inconclusive: 29.1 µM [inhibitor, single point]",
Cc1[nH]nc(-c2cccnc2)c1N=NN(C)C,"inconclusive: 7.94 µM [inhibitor, partial curve, poor fit]",
O=C(/C=C/c1ccc(F)cc1)NNC(=O)CCN1CCN(Cc2ccccc2)CC1,"inconclusive: 6.31 µM [inhibitor, full curve, poor fit]",
CN(c1ccccc1)S(=O)(=O)c1ccc(NC(=O)c2ccc(F)cc2)cc1,"inconclusive: 17.8 µM [inhibitor, partial curve, poor fit]",
C=CCOc1cccc(CNCCCN2CCOCC2)c1,"inconclusive: 0.631 µM [activator, partial curve, poor fit]",
CC1CCCCN1C(=O)CSc1nnc2c(n1)[nH]c1ccccc12 (configuration not stated),"inconclusive: 10 µM [inhibitor, single point]",
COC(=O)c1nc2ccc(N3CCOCC3)cc2c(C)c1C(=O)OC,,inactive: -2.23%
COc1cc(N2Cc3ccccc3C2)ccc1C=O,"inconclusive: 1.12 µM [inhibitor, partial curve, poor fit]",
COc1cccc(CN(C)C(=O)c2cccc(S(=O)(=O)N3CCN(c4ccc(F)cc4)CC3)c2)c1OC,"inconclusive: 4.47 µM [inhibitor, partial curve]",
CCOc1ccccc1CNc1nc2nc(C)c(CC(=O)OC)c(=O)n2[nH]1,,inactive: -8.16% [at 46.1 µM]
CCn1c(C)cc(/C=C2\NC(=O)N(CC(=O)Nc3cccc(C)c3)C2=O)c1C,"inconclusive: 1.3 µM [inhibitor, partial curve]",
O=C(N/N=C1/CC2C=CCC12)c1cccs1 (configuration not stated),"inconclusive: 35.5 µM [inhibitor, single point]",
O=c1n(-c2ccccc2)c(=O)n(Cc2ccccn2)n1Cc1ccccn1,"inconclusive: 6.31 µM [activator, single point]",
CCOC(=O)C1=C(CC)Nc2ccccc2N=C1NC(=O)c1oc2ccccc2c1C,"inconclusive: 35.5 µM [inhibitor, single point]",
CC(=O)Nc1ccc(NC(=O)COC(=O)c2ccccc2SCC(=O)N2CCCC2)cc1,"inconclusive: 35.5 µM [inhibitor, single point]",
Cc1c(Cl)cccc1NC(=S)NCC(c1cccnc1)N(C)C (configuration not stated),,inactive: -12.3%

# 3 neighbouring records already listed, quoted:
Structure (SMILES),Potency,"activity change, negative = inhibition"
Cc1ccccc1S(=O)(=O)Cc1ccc(C(=O)N2CCN(c3ccccc3F)CC2)o1,"inconclusive: 10 µM [inhibitor, partial curve, poor fit]",
O=C(NCc1ccc2[nH]c3c(c2c1)CCCC3)c1ccc(S(=O)(=O)N2CCOCC2)cc1,"inconclusive: 29.1 µM [inhibitor, single point]",
Cc1[nH]nc(-c2cccnc2)c1N=NN(C)C,"inconclusive: 7.94 µM [inhibitor, partial curve, poor fit]",
